Measurements published in the supplement of paper PMC12067093, “Discovery and optimisation of a covalent ligand for TRIM25 and its application to targeted protein ubiquitination” (Chemical Science, 2025).
This is one part of the list.

By UniProt entry, the sequences of proteins in these tests, tags left out. Where a name states a change or a piece, a line headed by the entry shows the natural chain unless it says otherwise.
UniProt Q7L5N1: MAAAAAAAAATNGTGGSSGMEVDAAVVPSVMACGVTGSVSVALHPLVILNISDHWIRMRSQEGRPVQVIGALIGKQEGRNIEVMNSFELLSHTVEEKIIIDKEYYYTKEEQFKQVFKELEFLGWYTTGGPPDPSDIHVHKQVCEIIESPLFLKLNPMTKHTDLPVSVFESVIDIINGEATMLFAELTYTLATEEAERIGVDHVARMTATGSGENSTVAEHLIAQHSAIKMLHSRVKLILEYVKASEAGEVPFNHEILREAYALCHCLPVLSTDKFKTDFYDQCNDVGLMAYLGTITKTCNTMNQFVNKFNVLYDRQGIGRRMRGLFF
UniProt Q7Z7A1: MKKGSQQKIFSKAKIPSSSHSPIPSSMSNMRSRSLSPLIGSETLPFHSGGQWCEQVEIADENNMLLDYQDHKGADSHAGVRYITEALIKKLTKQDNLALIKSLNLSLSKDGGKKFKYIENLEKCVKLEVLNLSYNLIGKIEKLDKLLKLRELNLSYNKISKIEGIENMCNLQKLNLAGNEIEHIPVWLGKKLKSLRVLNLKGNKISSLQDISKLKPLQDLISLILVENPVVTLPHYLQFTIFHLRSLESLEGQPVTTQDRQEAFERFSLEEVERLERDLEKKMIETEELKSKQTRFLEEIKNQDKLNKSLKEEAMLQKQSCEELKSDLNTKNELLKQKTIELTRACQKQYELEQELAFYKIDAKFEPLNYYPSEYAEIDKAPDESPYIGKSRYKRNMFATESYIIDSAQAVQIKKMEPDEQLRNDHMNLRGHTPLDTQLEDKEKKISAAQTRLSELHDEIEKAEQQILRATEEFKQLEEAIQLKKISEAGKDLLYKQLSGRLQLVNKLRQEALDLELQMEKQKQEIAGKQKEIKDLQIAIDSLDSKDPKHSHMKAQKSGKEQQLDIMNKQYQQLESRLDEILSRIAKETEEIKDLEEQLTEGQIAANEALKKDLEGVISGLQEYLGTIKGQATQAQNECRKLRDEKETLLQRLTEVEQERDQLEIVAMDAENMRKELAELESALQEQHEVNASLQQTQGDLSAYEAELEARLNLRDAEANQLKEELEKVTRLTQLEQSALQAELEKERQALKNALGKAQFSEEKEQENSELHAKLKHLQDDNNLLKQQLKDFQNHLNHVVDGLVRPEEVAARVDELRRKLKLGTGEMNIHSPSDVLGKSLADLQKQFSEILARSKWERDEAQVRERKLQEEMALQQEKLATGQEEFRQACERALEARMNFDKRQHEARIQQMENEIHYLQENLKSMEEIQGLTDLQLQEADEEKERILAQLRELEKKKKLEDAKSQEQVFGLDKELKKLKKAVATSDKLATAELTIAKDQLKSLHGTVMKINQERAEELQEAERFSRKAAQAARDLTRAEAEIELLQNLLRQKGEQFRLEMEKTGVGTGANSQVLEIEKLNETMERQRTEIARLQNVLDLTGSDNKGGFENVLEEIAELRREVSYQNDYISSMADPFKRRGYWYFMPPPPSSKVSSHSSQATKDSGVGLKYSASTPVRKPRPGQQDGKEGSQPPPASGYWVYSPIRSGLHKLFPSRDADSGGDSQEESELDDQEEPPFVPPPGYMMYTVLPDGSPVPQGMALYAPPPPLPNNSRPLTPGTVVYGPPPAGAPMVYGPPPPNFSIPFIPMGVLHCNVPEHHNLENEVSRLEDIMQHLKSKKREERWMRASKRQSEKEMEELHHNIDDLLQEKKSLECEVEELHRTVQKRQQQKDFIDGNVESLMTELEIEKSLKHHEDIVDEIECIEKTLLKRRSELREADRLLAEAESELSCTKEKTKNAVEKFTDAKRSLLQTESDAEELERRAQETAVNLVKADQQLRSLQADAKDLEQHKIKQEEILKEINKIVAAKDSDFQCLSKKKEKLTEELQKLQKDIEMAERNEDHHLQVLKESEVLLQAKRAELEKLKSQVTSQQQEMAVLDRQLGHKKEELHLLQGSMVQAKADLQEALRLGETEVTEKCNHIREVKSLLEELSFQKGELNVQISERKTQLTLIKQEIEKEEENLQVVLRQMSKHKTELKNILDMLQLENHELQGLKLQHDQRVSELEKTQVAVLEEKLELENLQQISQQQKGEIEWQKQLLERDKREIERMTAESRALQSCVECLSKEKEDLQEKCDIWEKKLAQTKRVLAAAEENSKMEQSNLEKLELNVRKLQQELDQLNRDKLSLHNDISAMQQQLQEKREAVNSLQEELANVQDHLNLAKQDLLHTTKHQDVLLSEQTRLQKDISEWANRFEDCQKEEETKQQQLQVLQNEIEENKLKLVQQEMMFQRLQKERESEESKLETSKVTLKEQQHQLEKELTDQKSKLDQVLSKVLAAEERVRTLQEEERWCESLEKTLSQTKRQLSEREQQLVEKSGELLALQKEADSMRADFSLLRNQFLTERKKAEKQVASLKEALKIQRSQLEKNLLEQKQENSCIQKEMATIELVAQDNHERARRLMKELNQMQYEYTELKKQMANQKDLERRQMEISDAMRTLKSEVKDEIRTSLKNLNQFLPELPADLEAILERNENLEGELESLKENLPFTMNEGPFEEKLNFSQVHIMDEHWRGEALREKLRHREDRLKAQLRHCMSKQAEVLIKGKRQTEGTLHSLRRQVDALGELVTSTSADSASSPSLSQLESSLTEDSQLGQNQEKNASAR
UniProt P53618: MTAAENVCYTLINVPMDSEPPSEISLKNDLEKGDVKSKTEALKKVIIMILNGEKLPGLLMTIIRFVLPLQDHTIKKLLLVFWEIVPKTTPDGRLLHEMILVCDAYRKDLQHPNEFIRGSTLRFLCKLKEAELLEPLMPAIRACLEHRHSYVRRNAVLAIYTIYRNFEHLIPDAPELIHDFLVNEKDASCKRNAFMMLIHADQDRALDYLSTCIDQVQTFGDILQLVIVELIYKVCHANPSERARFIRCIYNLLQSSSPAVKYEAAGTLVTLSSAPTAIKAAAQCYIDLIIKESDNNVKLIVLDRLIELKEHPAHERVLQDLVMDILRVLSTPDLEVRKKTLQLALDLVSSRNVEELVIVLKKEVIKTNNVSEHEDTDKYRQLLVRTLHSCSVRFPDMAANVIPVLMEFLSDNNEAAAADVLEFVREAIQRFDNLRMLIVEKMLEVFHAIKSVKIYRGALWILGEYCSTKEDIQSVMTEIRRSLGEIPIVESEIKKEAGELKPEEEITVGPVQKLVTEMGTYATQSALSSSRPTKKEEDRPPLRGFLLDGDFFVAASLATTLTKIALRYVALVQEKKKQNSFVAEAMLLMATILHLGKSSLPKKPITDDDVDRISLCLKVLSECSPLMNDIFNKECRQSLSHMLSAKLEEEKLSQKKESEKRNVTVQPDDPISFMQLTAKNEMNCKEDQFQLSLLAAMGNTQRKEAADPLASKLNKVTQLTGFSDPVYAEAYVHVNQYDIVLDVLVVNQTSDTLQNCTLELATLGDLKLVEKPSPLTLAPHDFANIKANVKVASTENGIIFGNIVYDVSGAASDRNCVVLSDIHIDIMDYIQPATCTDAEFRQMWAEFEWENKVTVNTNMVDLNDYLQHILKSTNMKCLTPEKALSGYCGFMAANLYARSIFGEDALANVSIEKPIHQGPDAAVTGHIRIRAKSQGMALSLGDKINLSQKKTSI
UniProt Q9BQ75: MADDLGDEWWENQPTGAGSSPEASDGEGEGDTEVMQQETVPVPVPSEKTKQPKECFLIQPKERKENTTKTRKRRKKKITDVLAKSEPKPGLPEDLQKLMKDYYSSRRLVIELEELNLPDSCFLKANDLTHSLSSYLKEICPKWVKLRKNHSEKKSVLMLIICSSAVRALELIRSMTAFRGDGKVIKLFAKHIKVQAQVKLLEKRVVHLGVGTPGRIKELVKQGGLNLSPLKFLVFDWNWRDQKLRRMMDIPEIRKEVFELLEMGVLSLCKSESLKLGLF
UniProt Q96JB2: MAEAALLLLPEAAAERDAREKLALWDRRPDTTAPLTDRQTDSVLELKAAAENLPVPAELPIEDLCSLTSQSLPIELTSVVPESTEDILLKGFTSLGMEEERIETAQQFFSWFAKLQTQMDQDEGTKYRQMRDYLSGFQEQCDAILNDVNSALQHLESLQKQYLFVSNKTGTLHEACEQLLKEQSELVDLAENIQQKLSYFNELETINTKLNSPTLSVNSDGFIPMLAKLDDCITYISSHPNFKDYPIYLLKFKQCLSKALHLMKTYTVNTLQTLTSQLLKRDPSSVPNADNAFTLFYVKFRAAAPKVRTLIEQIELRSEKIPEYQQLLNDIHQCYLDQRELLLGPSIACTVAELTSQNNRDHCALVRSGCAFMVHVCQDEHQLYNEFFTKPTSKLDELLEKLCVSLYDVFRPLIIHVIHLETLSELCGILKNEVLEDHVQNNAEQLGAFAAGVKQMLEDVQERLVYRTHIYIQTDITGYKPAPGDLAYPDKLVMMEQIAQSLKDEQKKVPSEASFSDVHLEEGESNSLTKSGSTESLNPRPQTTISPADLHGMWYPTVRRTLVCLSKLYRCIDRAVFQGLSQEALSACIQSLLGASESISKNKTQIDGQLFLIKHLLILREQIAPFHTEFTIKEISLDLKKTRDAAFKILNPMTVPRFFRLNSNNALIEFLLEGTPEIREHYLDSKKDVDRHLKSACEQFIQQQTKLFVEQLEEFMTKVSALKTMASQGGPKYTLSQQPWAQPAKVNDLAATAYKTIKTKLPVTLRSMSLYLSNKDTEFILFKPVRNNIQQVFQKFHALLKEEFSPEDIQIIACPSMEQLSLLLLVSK
UniProt P62633: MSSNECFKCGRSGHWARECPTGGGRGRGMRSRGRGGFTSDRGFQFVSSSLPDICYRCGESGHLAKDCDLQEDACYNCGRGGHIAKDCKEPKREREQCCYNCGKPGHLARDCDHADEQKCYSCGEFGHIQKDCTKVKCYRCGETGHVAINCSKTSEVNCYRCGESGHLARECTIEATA
UniProt P53621: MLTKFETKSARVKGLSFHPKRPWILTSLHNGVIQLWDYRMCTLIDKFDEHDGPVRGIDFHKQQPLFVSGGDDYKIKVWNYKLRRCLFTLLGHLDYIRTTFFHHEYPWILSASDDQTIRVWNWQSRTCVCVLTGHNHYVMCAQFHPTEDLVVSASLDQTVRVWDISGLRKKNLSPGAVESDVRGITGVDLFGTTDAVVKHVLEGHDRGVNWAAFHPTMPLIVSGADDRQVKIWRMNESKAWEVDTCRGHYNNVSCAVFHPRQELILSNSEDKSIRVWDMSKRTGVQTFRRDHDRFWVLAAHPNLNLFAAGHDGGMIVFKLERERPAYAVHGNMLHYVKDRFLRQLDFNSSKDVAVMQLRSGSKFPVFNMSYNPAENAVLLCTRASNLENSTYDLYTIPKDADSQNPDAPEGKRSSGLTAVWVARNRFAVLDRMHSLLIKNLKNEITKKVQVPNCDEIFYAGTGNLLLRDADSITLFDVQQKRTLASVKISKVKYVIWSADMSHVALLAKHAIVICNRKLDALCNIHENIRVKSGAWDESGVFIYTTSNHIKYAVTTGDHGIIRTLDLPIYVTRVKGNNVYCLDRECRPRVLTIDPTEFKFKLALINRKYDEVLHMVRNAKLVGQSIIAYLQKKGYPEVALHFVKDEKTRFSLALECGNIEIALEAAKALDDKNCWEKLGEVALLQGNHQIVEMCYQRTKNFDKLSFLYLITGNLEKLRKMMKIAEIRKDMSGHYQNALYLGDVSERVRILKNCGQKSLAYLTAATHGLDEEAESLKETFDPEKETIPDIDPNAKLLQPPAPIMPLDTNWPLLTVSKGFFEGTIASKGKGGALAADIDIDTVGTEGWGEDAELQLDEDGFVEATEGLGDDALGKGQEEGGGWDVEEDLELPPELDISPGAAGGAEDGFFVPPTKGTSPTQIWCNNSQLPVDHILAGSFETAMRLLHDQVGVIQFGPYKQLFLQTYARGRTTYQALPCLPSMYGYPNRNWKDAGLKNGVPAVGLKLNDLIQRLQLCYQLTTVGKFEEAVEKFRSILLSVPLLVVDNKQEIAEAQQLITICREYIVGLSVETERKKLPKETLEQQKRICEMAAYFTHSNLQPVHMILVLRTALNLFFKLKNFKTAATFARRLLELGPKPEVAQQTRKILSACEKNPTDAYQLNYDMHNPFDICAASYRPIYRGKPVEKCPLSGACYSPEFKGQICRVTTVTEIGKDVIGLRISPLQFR
UniProt Q9BT09: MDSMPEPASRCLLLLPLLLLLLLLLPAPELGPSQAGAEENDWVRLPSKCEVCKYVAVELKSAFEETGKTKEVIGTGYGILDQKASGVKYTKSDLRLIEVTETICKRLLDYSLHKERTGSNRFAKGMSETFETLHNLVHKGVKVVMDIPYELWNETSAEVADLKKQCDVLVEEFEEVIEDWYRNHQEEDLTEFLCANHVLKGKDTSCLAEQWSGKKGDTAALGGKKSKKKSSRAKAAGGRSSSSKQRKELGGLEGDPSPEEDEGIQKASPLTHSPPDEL

Compound: Cc1cc(ccc1-c1ccccc1)C(=O)N1CCCN(CC1)C(=O)CCl [compound 10]
Test: probe-labelled cysteine peptide fold change vs DMSO (competition) (log2 fold change); higher = less target engagement (more negative = stronger competition)
Settings: THP-1, incubation time: 4 h
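Further: competitive profiling in live THP-1 cells: cysteine peptides tagged with an iodoacetamide desthiobiotin (IA-DTB) probe, intensity after compound treatment relative to DMSO-treated cells.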

Row | Target | probe-labelled cysteine peptide fold change (10 µM) | probe-labelled cysteine peptide fold change (50 µM)
1 | COMTD1_Q86VU5_133_VVTCEVDAQPPELGR (UniProt Q86VU5) | -0.0014 | 0.348
2 | COLGALT1_Q8NBJ5_369_ALQAQEIECR (UniProt Q8NBJ5) | 0.0256 | 0.125
3 | COG5_Q9UP83_284_DTITSVVDGYCATLEENINSALDIK (UniProt Q9UP83) | 0.1 | 0.0388
4 | COPS6_Q7L5N1_266_EAYALCHCLPVLSTDK (UniProt Q7L5N1) | 0.35 | -0.223
5 | CNTRL_Q7Z7A1_1423_HHEDIVDEIECIEK (UniProt Q7Z7A1) | 0.185 | -0.246
6 | COPB1_P53618_684_NEMNCK (UniProt P53618) | -0.214 | -0.625
7 | CMSS1_Q9BQ75_121_RLVIELEELNLPDSCFLK (UniProt Q9BQ75) | 0.0787 | -0.142
8 | COG3_Q96JB2_363_DHCALVR (UniProt Q96JB2) | -0.12 | -0.0937
9 | CNBP_P62633_67_DCDLQEDACYNCGR (UniProt P62633) | 0.0676 | 
10 | COPA_P53621_254_GHYNNVSCAVFHPR (UniProt P53621) | 0.0735 | -0.0636
11 | COPB1_P53618_466_GALWILGEYCSTK (UniProt P53618) | -0.321 | 0.156
12 | COPA_P53621_655_FSLALECGNIEIALEAAK (UniProt P53621) | 0.269 | 0.264
13 | CNPY3_Q9BT09_206_DTSCLAEQWSGKK (UniProt Q9BT09) | -0.173 | 0.0136
14 | COPA_P53621_41_MCTLIDK (UniProt P53621) | 0.118 | 0.772
15 | COPA_P53621_693_LGEVALLQGNHQIVEMCYQR (UniProt P53621) | -0.0967 | -0.076

Reformatted in markdown: part of the list above

| Row | Target | probe-labelled cysteine peptide fold change (10 µM) | probe-labelled cysteine peptide fold change (50 µM) |
| --- | --- | --- | --- |
| 5 | CNTRL_Q7Z7A1_1423_HHEDIVDEIECIEK (UniProt Q7Z7A1) | 0.185 | -0.246 |
| 7 | CMSS1_Q9BQ75_121_RLVIELEELNLPDSCFLK (UniProt Q9BQ75) | 0.0787 | -0.142 |
| 8 | COG3_Q96JB2_363_DHCALVR (UniProt Q96JB2) | -0.12 | -0.0937 |
